{
  "source": "paper PMC8149794",
  "key": {"[1]": {"molecular_target": "PpILR1 (Prunus persica) (UniProt M5W208)", "assay": "EMSA", "settings": "Thermo Scientific EMSA kit, per manufacturer's instructions; pH and temperature not stated; recombinant protein; protein details: GST (pGEX-6P-1, N-terminal); label: 5' biotin"}, "[2]": {"molecular_target": "PpILR1-M C137S (Prunus persica) (UniProt M5W208)", "assay": "EMSA", "settings": "Thermo Scientific EMSA kit, per manufacturer's instructions; pH and temperature not stated; recombinant protein; protein details: GST (pGEX-6P-1, N-terminal); label: 5' biotin"}},
  "note": "The exact form of at least one protein or probe is not confirmed.",
  "data": [
    {"sequence": "CGTAAAAGTTTTGAGTCGGGAAGTAATCGGTGACATGTTAAATTCAAACTATACTAATATGG (double strand) [PpACS1-P1 GTGACA probe]", "values": [
      {"measurement": "binding result", "setting": "[1]", "result": "binds"},
      {"measurement": "binding result", "setting": "[2]", "result": "binds"}
    ]}
  ]
}
